# Reference: PMC8384837
# Residue numbers refer to the chain shown, from its start. The list shows a part of the results. For some of these results: At the low end of the ranking the order means little. For some of these results: The exact form of the protein is not confirmed.
# How the values were obtained:
# Settings in all cases: yeast three-hybrid, YBZ-1, SC-Leu-His + 0.5 mM 3-AT, 4 days
# [1] = target: T1, PUM1 PUF domain R1-QFR R2-VFQ R7-NPG S863Q + R864F + Q867R + N899V + Y900F + S1079N + N1080P + E1083G (UniProt Q14671)
# T1 sequence: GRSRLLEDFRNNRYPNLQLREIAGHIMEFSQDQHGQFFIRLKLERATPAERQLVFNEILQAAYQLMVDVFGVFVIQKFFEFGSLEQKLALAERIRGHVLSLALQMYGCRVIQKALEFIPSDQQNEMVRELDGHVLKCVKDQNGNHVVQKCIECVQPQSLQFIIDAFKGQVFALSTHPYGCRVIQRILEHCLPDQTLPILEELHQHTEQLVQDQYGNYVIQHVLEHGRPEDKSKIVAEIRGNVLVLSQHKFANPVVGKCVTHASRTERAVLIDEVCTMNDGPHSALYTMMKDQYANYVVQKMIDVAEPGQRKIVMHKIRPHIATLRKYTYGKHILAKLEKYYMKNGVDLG
# [2] = target: T2, PUM1 PUF domain R3-THE R4-TFR C935T + R936H + Q939E + N971T + H972F + Q975R (UniProt Q14671)
# T2 sequence: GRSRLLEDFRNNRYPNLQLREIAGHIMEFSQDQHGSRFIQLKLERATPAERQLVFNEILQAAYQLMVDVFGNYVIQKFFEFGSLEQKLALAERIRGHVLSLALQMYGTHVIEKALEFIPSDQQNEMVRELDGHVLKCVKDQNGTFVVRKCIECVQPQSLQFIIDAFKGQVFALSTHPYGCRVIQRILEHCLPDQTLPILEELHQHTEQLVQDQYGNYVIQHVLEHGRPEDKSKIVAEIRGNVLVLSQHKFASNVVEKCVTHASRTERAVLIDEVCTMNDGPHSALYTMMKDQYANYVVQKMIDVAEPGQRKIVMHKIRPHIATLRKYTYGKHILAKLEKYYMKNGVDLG
# [3] = target: T3, PUM1 PUF domain R3-THE R4-TFR R7-NPG C935T + R936H + Q939E + N971T + H972F + Q975R + S1079N + N1080P + E1083G (Homo sapiens) (UniProt Q14671)
# T3 sequence: T2 sequence with S252N, N253P, E256G
# [4] = target: T4, PUM1 PUF domain R5-PHQ R6-SWD C1007P + R1008H + N1043S + Y1044W + Q1047D (UniProt Q14671)
# T4 sequence: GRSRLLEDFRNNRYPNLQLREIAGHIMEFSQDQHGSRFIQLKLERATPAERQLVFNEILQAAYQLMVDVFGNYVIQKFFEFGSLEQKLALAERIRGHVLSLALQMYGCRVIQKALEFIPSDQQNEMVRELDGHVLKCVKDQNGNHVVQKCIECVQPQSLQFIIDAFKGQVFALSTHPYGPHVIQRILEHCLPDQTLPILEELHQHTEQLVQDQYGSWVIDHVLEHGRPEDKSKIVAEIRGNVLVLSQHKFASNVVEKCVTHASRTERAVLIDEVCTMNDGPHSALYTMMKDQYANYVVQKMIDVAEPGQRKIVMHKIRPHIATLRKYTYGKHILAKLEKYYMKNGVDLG
# [5] = target: T5, PUM1 PUF domain R6-SWD R7-NPG N1043S + Y1044W + Q1047D + S1079N + N1080P + E1083G (Homo sapiens) (UniProt Q14671)
# T5 sequence: T4 sequence with P180C, H181R, S252N, N253P, E256G
# [6] = target: T6, PUM1 PUF domain R6-SWD R7-NPG N1043S + Y1044W + Q1047D + S1079N + N1080P + E1083G (UniProt Q14671)
# T6 sequence: T4 sequence with P180C, H181R, S252N, N253P, E256G
# [7] = target: T7, PUM1 PUF domain R3-THE R4-TFR R7-NPG C935T + R936H + Q939E + N971T + H972F + Q975R + S1079N + N1080P + E1083G (UniProt Q14671)
# T7 sequence: T2 sequence with S252N, N253P, E256G
sequence,measurement,setting,value
GGCUAGAACUAGUGGAUCCCCCGGCGCCCGGCGGCUCGAGCCCGGGUAAGUCUAGGUAGUCUGCAUGCCGCCGGGCGCCAUGCCUGCAGGUCGACUCUAGAAAACAUG,binding signal (log2 enrichment (interaction score)),[1],< -5.58
same,binding signal (log2 enrichment (interaction score)),[2],-6.77
same,binding signal (log2 enrichment (interaction score)),[3],-1.19
same,binding signal (log2 enrichment (interaction score)),[4],-7.44
same,binding signal (log2 enrichment (interaction score)),[5],-0.43
GGCUAGAACUAGUGGAUCCCCCGGCGCCCGGCGGCUCGAGCCCGGGUAAGUGGUACUAGUCUGCAUGCCGCCGGGCGCCAUGCCUGCAGGUCGACUCUAGAAAACAUG,binding signal (log2 enrichment (interaction score)),[1],-4.63
same,binding signal (log2 enrichment (interaction score)),[2],< -7.03
GGCUAGAACUAGUGGAUCCCCCGGCGCCCGGCGGCUCGAGCCCGGGUAAGUAUAUGGGGUCUGCAUGCCGCCGGGCGCCAUGCCUGCAGGUCGACUCUAGAAAACAUG,binding signal (log2 enrichment (interaction score)),[1],-6.08
same,binding signal (log2 enrichment (interaction score)),[2],-7.11
same,binding signal (log2 enrichment (interaction score)),[3],-1.37
GGCUAGAACUAGUGGAUCCCCCGGCGCCCGGCGGCUCGAGCCCGGGUAAGUUUAUGAUGUCUGCAUGCCGCCGGGCGCCAUGCCUGCAGGUCGACUCUAGAAAACAUG,binding signal (log2 enrichment (interaction score)),[1],< -5.58
same,binding signal (log2 enrichment (interaction score)),[2],-7.35
same,binding signal (log2 enrichment (interaction score)),[3],< -0.63
GGCUAGAACUAGUGGAUCCCCCGGCGCCCGGCGGCUCGAGCCCGGGUAAGUGGCAUAAGUCUGCAUGCCGCCGGGCGCCAUGCCUGCAGGUCGACUCUAGAAAACAUG,binding signal (log2 enrichment (interaction score)),[1],-4.3
same,binding signal (log2 enrichment (interaction score)),[2],-5.7
same,binding signal (log2 enrichment (interaction score)),[3],< -1.82
same,binding signal (log2 enrichment (interaction score)),[4],-7.84
same,binding signal (log2 enrichment (interaction score)),[6],-2.02
GGCUAGAACUAGUGGAUCCCCCGGCGCCCGGCGGCUCGAGCCCGGGUAAGCUGACCUCGUCUGCAUGCCGCCGGGCGCCAUGCCUGCAGGUCGACUCUAGAAAACAUG,binding signal (log2 enrichment (interaction score)),[1],-4.99
same,binding signal (log2 enrichment (interaction score)),[2],< -6.95
GGCUAGAACUAGUGGAUCCCCCGGCGCCCGGCGGCUCGAGCCCGGGUAAGUUGGCGAAGUCUGCAUGCCGCCGGGCGCCAUGCCUGCAGGUCGACUCUAGAAAACAUG,binding signal (log2 enrichment (interaction score)),[1],-5.05
same,binding signal (log2 enrichment (interaction score)),[2],-6.08
GGCUAGAACUAGUGGAUCCCCCGGCGCCCGGCGGCUCGAGCCCGGGUAAGUGGAAGGCGUCUGCAUGCCGCCGGGCGCCAUGCCUGCAGGUCGACUCUAGAAAACAUG,binding signal (log2 enrichment (interaction score)),[1],-5.3
same,binding signal (log2 enrichment (interaction score)),[2],< -6.79
same,binding signal (log2 enrichment (interaction score)),[4],< -9.03
GGCUAGAACUAGUGGAUCCCCCGGCGCCCGGCGGCUCGAGCCCGGGUAAGCUUACAUAGUCUGCAUGCCGCCGGGCGCCAUGCCUGCAGGUCGACUCUAGAAAACAUG,binding signal (log2 enrichment (interaction score)),[1],-5.81
same,binding signal (log2 enrichment (interaction score)),[2],-7.5
same,binding signal (log2 enrichment (interaction score)),[3],-0.75
same,binding signal (log2 enrichment (interaction score)),[4],-7.46
GGCUAGAACUAGUGGAUCCCCCGGCGCCCGGCGGCUCGAGCCCGGGUAAGUGCAAGUCGUCUGCAUGCCGCCGGGCGCCAUGCCUGCAGGUCGACUCUAGAAAACAUG,binding signal (log2 enrichment (interaction score)),[1],-5.44
same,binding signal (log2 enrichment (interaction score)),[2],-7.64
same,binding signal (log2 enrichment (interaction score)),[7],< -2.32
same,binding signal (log2 enrichment (interaction score)),[4],-6.92
GGCUAGAACUAGUGGAUCCCCCGGCGCCCGGCGGCUCGAGCCCGGGUAAGUGGAAAGAGUCUGCAUGCCGCCGGGCGCCAUGCCUGCAGGUCGACUCUAGAAAACAUG,binding signal (log2 enrichment (interaction score)),[1],< -6.97
same,binding signal (log2 enrichment (interaction score)),[2],-7.79
same,binding signal (log2 enrichment (interaction score)),[4],-6.13
GGCUAGAACUAGUGGAUCCCCCGGCGCCCGGCGGCUCGAGCCCGGGUAAGUGUCAGCAGUCUGCAUGCCGCCGGGCGCCAUGCCUGCAGGUCGACUCUAGAAAACAUG,binding signal (log2 enrichment (interaction score)),[1],< -5.66
same,binding signal (log2 enrichment (interaction score)),[2],-7.15
same,binding signal (log2 enrichment (interaction score)),[4],< -8.56
GGCUAGAACUAGUGGAUCCCCCGGCGCCCGGCGGCUCGAGCCCGGGUAAGAUUCUGUGGUCUGCAUGCCGCCGGGCGCCAUGCCUGCAGGUCGACUCUAGAAAACAUG,binding signal (log2 enrichment (interaction score)),[1],-4.84
same,binding signal (log2 enrichment (interaction score)),[2],-6.46
same,binding signal (log2 enrichment (interaction score)),[3],-1.29
GGCUAGAACUAGUGGAUCCCCCGGCGCCCGGCGGCUCGAGCCCGGGUAAGUGCAAAACGUCUGCAUGCCGCCGGGCGCCAUGCCUGCAGGUCGACUCUAGAAAACAUG,binding signal (log2 enrichment (interaction score)),[1],-6.46
same,binding signal (log2 enrichment (interaction score)),[2],-5.83
same,binding signal (log2 enrichment (interaction score)),[4],-8.48
GGCUAGAACUAGUGGAUCCCCCGGCGCCCGGCGGCUCGAGCCCGGGUAAGUGAACAACGUCUGCAUGCCGCCGGGCGCCAUGCCUGCAGGUCGACUCUAGAAAACAUG,binding signal (log2 enrichment (interaction score)),[1],-5.83
same,binding signal (log2 enrichment (interaction score)),[2],< -6.89
GGCUAGAACUAGUGGAUCCCCCGGCGCCCGGCGGCUCGAGCCCGGGUAAGCGUAAAGUGUCUGCAUGCCGCCGGGCGCCAUGCCUGCAGGUCGACUCUAGAAAACAUG,binding signal (log2 enrichment (interaction score)),[1],-6.92
same,binding signal (log2 enrichment (interaction score)),[2],-6.6
same,binding signal (log2 enrichment (interaction score)),[4],-7.27
GGCUAGAACUAGUGGAUCCCCCGGCGCCCGGCGGCUCGAGCCCGGGUAAGUUUACGAAGUCUGCAUGCCGCCGGGCGCCAUGCCUGCAGGUCGACUCUAGAAAACAUG,binding signal (log2 enrichment (interaction score)),[1],-5.93
same,binding signal (log2 enrichment (interaction score)),[2],-6.4
same,binding signal (log2 enrichment (interaction score)),[5],-1.24
GGCUAGAACUAGUGGAUCCCCCGGCGCCCGGCGGCUCGAGCCCGGGUAAGUGAAAAAAGUCUGCAUGCCGCCGGGCGCCAUGCCUGCAGGUCGACUCUAGAAAACAUG,binding signal (log2 enrichment (interaction score)),[1],-5.89
same,binding signal (log2 enrichment (interaction score)),[2],-6.3
same,binding signal (log2 enrichment (interaction score)),[4],< -6.95
GGCUAGAACUAGUGGAUCCCCCGGCGCCCGGCGGCUCGAGCCCGGGUAAGUAUAAGUGGUCUGCAUGCCGCCGGGCGCCAUGCCUGCAGGUCGACUCUAGAAAACAUG,binding signal (log2 enrichment (interaction score)),[1],-5.86
same,binding signal (log2 enrichment (interaction score)),[2],< -6.78
same,binding signal (log2 enrichment (interaction score)),[5],-0.76
GGCUAGAACUAGUGGAUCCCCCGGCGCCCGGCGGCUCGAGCCCGGGUAAGUAUAGACAGUCUGCAUGCCGCCGGGCGCCAUGCCUGCAGGUCGACUCUAGAAAACAUG,binding signal (log2 enrichment (interaction score)),[1],< -5.81
same,binding signal (log2 enrichment (interaction score)),[2],-6.72
same,binding signal (log2 enrichment (interaction score)),[4],< -7.15
same,binding signal (log2 enrichment (interaction score)),[5],-1.03
GGCUAGAACUAGUGGAUCCCCCGGCGCCCGGCGGCUCGAGCCCGGGUAAGUUUCAGUAGUCUGCAUGCCGCCGGGCGCCAUGCCUGCAGGUCGACUCUAGAAAACAUG,binding signal (log2 enrichment (interaction score)),[1],-3.58
same,binding signal (log2 enrichment (interaction score)),[2],-6.12
same,binding signal (log2 enrichment (interaction score)),[4],< -7.41
GGCUAGAACUAGUGGAUCCCCCGGCGCCCGGCGGCUCGAGCCCGGGUAAGUCGUCAUAGUCUGCAUGCCGCCGGGCGCCAUGCCUGCAGGUCGACUCUAGAAAACAUG,binding signal (log2 enrichment (interaction score)),[1],< -6.34
same,binding signal (log2 enrichment (interaction score)),[2],-7.54
same,binding signal (log2 enrichment (interaction score)),[4],-7.59
same,binding signal (log2 enrichment (interaction score)),[5],-0.65

# A second format for some results above.
sequence	measurement	setting	value
GGCUAGAACUAGUGGAUCCCCCGGCGCCCGGCGGCUCGAGCCCGGGUAAGUCGUCAUAGUCUGCAUGCCGCCGGGCGCCAUGCCUGCAGGUCGACUCUAGAAAACAUG	binding signal (log2 enrichment (interaction score))	[1]	< -6.34
same	binding signal (log2 enrichment (interaction score))	[2]	-7.54
same	binding signal (log2 enrichment (interaction score))	[4]	-7.59

# Reprinted at random: 3 entries already listed.
sequence,measurement,setting,value
GGCUAGAACUAGUGGAUCCCCCGGCGCCCGGCGGCUCGAGCCCGGGUAAGUGGAAGGCGUCUGCAUGCCGCCGGGCGCCAUGCCUGCAGGUCGACUCUAGAAAACAUG,binding signal (log2 enrichment (interaction score)),[1],-5.3
GGCUAGAACUAGUGGAUCCCCCGGCGCCCGGCGGCUCGAGCCCGGGUAAGUCGUCAUAGUCUGCAUGCCGCCGGGCGCCAUGCCUGCAGGUCGACUCUAGAAAACAUG,binding signal (log2 enrichment (interaction score)),[5],-0.65
GGCUAGAACUAGUGGAUCCCCCGGCGCCCGGCGGCUCGAGCCCGGGUAAGAUUCUGUGGUCUGCAUGCCGCCGGGCGCCAUGCCUGCAGGUCGACUCUAGAAAACAUG,binding signal (log2 enrichment (interaction score)),[1],-4.84
